From US20240251785A1, “SMALL MOLECULE ANTAGONISTS AND AGONISTS OF ARTHROPOD KININ RECEPTORS FOR PEST CONTROL” (The Texas A&M University System, priority 2021, published 2024)
Some of these results come from one statement about several compounds together. At least one compound was matched to its structure with a doubt left.

Tested on: Aedes aegypti kinin receptor
Assay: Calcium fluorescence assay on recombinant mosquito kinin receptor (IGKN G12 cell line)
Assay type: cell-based
Details: all three concentrations 10, 30 and 100 μmol L^−1; 1728 1 μmol L^−1
Procedure: Three identified potent small molecule antagonists, and as control, a small molecule of very low antagonistic activity, all identified as part of this study, were tested in the calcium fluorescence assay, as above, for their activity on the cell line expressing the Aedes aegypti kinin receptor (IGKN G12 cell line). Receptor cloning, expression and clonal cell selection were as described previously.^3′ The recombinant tick kinin receptor (BMLK3) was tested simultaneously as positive control for the assay. BMLK3 and IGKN G12 cells were seeded in 96-well-plates (Greiner Bio-One®, B/C 655097) at a density of […] cells in 100 μL maintenance medium. Cells were prepared as described above for the calcium fluorescence assay; and each well was added with 90 μL assay buffer (see Section 2.3, HHBS plus dye efflux inhibitor).
For each compound three 10× concentrations (100, 300, 1000 μmol L^−1) were prepared and 10 μL of each was added manually into one well of each cell line for a final concentration of 10, 30 and 100 μcool L^−1. […] The cellular calcium response in RFU was immediately recorded continuously for 60 s with 3 s intervals between reads using a Clariostar plate reader. The average RFU of these 20 reads represented the raw response to each treatment. […]

Compound	inhibition of maximal response [%]
Cc1ccc(S(=O)(=O)NN2C(=O)C(=Cc3cccc4ccccc34)SC2=S)cc1 [SACC-0412062]	≥ 50
O=C1C(=Cc2ccccc2)SC(=S)N1NS(=O)(=O)c1ccccc1 [SACC-0412060]	≥ 50
